Experimental data taken from the supplement of paper PMC10849652.
The other results are listed elsewhere or left out.

The chains behind the UniProt entries cited, without tags or fusion partners. Where a name states a change or a piece, a line headed by the entry shows the natural chain unless it says otherwise.
UniProt Q14997: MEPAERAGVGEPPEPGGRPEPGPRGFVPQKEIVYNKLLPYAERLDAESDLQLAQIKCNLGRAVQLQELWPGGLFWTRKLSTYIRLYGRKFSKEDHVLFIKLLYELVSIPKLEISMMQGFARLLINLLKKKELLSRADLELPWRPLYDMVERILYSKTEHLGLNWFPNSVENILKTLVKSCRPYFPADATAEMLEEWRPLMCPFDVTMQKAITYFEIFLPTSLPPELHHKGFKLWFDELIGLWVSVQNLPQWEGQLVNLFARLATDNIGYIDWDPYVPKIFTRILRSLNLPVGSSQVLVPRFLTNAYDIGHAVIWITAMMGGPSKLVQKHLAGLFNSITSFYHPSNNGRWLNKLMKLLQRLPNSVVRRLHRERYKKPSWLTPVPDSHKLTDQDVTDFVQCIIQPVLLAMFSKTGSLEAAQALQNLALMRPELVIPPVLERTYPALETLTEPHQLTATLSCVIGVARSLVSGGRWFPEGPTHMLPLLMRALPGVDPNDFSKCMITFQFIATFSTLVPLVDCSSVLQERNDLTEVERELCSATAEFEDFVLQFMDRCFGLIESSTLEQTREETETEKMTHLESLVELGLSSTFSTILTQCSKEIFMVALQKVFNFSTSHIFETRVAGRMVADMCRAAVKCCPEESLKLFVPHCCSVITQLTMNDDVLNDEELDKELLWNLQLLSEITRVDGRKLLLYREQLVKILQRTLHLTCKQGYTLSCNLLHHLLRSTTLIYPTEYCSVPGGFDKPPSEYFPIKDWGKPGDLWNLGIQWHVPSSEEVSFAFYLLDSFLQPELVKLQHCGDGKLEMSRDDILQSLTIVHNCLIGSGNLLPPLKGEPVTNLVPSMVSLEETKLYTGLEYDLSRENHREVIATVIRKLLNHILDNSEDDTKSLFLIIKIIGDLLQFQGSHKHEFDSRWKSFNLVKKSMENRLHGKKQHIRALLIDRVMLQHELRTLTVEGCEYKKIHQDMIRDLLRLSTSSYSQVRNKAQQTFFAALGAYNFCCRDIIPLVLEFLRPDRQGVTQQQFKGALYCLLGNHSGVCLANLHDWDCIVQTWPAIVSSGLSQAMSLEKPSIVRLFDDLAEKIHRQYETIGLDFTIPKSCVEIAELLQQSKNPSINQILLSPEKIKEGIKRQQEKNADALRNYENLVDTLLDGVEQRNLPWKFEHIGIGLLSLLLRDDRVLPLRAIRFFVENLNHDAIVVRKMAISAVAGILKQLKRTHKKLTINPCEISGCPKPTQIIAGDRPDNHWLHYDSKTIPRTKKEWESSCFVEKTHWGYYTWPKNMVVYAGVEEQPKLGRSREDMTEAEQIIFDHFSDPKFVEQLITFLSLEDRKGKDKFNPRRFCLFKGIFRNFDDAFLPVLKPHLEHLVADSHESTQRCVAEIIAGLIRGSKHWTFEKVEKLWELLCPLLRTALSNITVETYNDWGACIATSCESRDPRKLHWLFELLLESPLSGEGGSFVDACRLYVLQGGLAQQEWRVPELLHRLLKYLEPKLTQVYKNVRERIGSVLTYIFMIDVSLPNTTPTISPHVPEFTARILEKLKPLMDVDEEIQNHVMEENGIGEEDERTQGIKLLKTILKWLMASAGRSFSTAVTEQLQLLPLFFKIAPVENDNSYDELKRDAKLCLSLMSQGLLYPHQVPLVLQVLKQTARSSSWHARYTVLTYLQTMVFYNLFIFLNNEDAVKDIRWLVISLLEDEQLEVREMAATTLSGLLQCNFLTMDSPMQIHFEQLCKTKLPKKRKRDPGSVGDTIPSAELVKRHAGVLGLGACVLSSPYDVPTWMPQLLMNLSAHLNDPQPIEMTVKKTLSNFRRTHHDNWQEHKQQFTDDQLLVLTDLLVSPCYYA
UniProt P15151: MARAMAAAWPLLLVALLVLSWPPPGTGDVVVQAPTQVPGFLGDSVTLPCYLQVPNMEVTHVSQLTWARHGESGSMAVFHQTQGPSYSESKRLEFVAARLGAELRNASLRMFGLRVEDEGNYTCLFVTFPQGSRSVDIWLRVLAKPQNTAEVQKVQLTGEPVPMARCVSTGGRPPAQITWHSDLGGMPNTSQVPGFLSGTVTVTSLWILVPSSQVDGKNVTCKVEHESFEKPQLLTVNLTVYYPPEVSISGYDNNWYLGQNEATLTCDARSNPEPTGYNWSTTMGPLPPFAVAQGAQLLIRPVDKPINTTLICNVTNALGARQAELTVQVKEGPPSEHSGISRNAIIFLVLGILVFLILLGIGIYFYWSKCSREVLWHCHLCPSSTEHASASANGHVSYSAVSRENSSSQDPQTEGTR
UniProt P17980, whole entry, looked up: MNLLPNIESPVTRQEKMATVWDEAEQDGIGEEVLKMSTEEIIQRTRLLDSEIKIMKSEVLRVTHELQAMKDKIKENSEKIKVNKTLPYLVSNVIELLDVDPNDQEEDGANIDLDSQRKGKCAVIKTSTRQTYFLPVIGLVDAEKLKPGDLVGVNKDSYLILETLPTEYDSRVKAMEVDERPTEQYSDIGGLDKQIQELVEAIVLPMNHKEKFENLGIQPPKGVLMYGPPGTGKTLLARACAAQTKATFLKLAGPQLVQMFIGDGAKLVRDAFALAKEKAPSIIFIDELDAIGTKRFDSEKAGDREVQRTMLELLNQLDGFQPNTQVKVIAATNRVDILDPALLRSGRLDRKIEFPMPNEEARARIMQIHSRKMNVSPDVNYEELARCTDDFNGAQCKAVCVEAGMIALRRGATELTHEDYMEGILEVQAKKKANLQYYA
UniProt Q9Y3E5: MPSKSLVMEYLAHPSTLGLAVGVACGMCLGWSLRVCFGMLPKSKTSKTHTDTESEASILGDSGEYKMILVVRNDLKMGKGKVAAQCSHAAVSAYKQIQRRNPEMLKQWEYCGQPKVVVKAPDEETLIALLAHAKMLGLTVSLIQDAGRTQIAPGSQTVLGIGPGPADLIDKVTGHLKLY
UniProt Q9Y520: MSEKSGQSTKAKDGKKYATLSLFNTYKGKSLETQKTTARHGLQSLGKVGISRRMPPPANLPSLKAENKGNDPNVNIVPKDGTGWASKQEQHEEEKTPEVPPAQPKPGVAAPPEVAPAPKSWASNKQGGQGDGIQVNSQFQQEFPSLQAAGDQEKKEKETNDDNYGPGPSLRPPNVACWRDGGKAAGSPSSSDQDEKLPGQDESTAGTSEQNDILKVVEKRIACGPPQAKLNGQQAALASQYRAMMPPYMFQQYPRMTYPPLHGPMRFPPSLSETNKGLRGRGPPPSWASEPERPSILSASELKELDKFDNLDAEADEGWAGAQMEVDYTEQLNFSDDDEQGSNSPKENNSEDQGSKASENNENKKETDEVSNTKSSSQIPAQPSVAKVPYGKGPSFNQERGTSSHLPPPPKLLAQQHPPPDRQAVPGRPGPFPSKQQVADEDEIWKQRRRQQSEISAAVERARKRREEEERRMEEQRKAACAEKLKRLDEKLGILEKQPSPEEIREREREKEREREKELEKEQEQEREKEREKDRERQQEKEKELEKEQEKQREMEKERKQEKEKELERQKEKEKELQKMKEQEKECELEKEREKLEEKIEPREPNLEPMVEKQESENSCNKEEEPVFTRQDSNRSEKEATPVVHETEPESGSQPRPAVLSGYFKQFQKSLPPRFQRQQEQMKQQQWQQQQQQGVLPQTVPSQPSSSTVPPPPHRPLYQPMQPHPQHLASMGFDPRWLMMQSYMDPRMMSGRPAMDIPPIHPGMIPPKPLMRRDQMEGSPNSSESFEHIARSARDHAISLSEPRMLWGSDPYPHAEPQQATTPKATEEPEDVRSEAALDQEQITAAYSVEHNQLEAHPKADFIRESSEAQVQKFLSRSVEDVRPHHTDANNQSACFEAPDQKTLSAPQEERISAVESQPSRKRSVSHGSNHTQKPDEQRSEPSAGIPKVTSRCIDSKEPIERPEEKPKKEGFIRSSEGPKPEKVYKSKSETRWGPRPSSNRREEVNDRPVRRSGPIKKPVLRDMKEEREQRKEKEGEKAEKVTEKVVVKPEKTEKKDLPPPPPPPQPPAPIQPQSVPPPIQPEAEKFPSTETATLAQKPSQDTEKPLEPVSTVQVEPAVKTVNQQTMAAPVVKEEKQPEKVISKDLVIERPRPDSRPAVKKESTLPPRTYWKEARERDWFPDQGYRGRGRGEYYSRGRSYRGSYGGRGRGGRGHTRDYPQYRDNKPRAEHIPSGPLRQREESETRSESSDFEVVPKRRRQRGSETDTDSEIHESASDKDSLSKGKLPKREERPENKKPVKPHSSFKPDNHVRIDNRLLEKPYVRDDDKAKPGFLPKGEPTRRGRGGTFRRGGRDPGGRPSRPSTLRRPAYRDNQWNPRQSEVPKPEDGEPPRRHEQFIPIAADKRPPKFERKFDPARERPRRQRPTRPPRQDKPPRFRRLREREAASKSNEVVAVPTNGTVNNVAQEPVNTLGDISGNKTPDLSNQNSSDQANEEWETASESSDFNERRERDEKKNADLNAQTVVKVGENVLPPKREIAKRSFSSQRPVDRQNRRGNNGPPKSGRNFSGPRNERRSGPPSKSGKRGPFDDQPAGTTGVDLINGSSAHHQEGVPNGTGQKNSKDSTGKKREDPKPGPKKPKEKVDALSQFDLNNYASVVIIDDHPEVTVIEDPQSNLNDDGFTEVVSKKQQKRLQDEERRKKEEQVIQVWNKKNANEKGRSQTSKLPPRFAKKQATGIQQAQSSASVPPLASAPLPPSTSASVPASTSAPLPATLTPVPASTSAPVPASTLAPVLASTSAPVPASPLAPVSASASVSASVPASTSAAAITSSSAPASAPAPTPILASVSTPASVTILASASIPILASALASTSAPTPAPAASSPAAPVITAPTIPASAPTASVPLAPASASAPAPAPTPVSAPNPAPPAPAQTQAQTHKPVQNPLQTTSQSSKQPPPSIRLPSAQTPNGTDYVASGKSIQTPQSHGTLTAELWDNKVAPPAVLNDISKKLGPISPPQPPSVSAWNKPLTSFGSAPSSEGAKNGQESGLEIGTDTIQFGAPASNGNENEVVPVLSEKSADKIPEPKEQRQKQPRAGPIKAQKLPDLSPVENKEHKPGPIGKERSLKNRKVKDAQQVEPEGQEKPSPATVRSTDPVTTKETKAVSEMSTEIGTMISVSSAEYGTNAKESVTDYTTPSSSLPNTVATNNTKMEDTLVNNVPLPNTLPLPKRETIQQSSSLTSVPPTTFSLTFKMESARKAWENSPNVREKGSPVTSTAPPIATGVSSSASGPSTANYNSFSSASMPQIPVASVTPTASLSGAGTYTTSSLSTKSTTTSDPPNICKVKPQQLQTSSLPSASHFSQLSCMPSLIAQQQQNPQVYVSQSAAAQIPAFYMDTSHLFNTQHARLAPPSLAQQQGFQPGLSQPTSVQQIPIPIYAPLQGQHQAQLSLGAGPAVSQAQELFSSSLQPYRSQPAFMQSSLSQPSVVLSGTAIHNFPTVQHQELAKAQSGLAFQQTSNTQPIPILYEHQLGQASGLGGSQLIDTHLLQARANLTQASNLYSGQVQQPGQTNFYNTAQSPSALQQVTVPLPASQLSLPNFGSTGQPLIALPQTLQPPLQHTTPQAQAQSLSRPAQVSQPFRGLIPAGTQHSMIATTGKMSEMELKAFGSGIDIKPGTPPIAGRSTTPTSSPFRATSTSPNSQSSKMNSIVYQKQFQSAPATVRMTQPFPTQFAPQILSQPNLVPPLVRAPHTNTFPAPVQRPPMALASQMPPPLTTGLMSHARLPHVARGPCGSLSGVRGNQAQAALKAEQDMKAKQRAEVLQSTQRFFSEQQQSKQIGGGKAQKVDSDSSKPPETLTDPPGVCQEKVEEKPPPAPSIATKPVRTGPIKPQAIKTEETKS
UniProt P78330: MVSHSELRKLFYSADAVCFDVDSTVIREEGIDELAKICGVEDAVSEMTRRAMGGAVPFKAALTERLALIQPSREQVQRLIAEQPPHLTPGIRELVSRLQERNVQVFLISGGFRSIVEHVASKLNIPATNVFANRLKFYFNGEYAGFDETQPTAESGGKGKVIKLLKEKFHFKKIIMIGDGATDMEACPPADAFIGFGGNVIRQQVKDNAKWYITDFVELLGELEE
UniProt P62191: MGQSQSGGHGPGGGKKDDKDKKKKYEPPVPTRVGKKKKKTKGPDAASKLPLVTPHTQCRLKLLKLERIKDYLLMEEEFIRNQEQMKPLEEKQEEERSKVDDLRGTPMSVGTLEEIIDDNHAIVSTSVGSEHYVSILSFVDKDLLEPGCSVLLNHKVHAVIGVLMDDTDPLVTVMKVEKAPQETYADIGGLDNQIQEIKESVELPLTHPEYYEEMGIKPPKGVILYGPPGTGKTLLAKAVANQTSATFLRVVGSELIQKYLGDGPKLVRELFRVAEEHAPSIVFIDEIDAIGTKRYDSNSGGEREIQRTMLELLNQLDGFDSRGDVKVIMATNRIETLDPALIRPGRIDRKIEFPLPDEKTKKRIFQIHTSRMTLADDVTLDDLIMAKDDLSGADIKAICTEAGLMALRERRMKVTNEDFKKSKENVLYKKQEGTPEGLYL

How the values were obtained:
Test in all cases: log2 fold change, soluble protein after heating vs DMSO (PISA); higher = thermal stabilisation; K562 lysate, 10 uM; active = over 0.2 and 3.5 SD of the protein, either way, in both replicates (recomputed)
[1] = compound: NCC(=O)Nc1ccc(-n2nc(C(F)(F)F)cc2-c2ccc3c(ccc4ccccc43)c2)cc1
Outline: (§1)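 Values give the log-two fold change in thermal stability against solvent controls, from duplicates. Crude K562 extract at 1 mg/mL protein, made by dounce homogenisation in PBS pH 7.4 with 1 mM MgCl2, was treated with 10 μM compound for 30 min. After 3 min heating across 48°C-58°C, aliquots were pooled, adjusted to 0.5% NP-40 at 4°C and centrifuged at 21,000xg for 90 min. The supernatant was measured by TMTpro 16plex LC-MS/MS with channel sums equalised.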

vorinostat = compound: O=C(CCCCCCC(=O)Nc1ccccc1)NO [vorinostat]
Outline: as §1

silmitasertib = compound: O=C(O)c1ccc2c(c1)nc(Nc1cccc(Cl)c1)c1ccncc12 [silmitasertib]
Outline: as §1

[2] = compound: O=C1NC(=O)C(c2cnc3ccccn23)=C1c1cn2c3c(cc(F)cc13)CN(C(=O)N1CCCCC1)CC2
Outline: as §1

entospletinib = compound: c1cn2cc(-c3ccc4cn[nH]c4c3)nc(Nc3ccc(N4CCOCC4)cc3)c2n1 [entospletinib]
Outline: as §1

Target	log2 fold change [1]	log2 fold change (vorinostat)	log2 fold change (silmitasertib)	log2 fold change [2]	log2 fold change (entospletinib)
PTAR1 (UniProt Q7Z6K3)	inactive: 0.053	inactive: -0.029	inactive: 0.009	inactive: 0.033	inactive: 0.086
PUM2 (UniProt Q8TB72)	inactive: 0.292	inactive: -0.019	inactive: -0.131	inactive: 0.094	inactive: -0.01
PSMD1 (UniProt Q99460)	inactive: 0	inactive: 0.037	inactive: 0.017	inactive: -0.006	inactive: -0.005
PSMB2, A0A087WVV1	inactive: 0.023	inactive: 0.051	inactive: 0.071	inactive: 0.172	inactive: -0.069
PRPS2 isoform 2 (UniProt P11908)	inactive: 0.008	inactive: -0.11	inactive: 0.012	inactive: -0.025	inactive: -0.003
PSME4 (UniProt Q14997)	inactive: -0.006	inactive: -0.197	inactive: 0.062	inactive: 0.022	inactive: -0.002
PSMB2 (UniProt P49721)	inactive: -0.047	inactive: 0.103	inactive: -0.009	inactive: 0.004	inactive: -0.054
PTGFRN (UniProt Q9P2B2)	inactive: -0.008	inactive: 0.078	inactive: 0	inactive: -0.029	inactive: -0.008
PVR (UniProt P15151)	inactive: 0.108	inactive: 0.128	inactive: -0.053	inactive: -0.041	inactive: 0.003
PSMC3 (UniProt P17980)	inactive: 0.033	inactive: -0.036	inactive: 0.007	inactive: 0.005	inactive: -0.023
PTPMT1 (UniProt Q8WUK0)	inactive: -0.091	inactive: -0.159	inactive: 0.015	inactive: -0.031	inactive: 0.048
PRRC1 (UniProt Q96M27)	inactive: 0.018	inactive: 0.142	inactive: 0.001	inactive: -0.003	inactive: -0.025
PTP4A2 (UniProt Q12974)	inactive: -0.042	inactive: 0.004	inactive: -0.02	inactive: -0.085	inactive: 0.043
PTRH2 (UniProt Q9Y3E5)	inactive: -0.008	inactive: -0.023	inactive: 0	inactive: 0.06	inactive: -0.007
PRRC2C isoform 7 (UniProt Q9Y520)	inactive: 0.035	inactive: 0.046	inactive: -0.035	inactive: -0.012	inactive: -0.013
PSPH (UniProt P78330)	inactive: 0.019	inactive: 0.131	inactive: -0.001	inactive: 0.027	inactive: 0.029
PRPSAP1 isoform 2 (UniProt Q14558)	inactive: -0.012	inactive: -0.06	inactive: -0.003	inactive: 0.043	inactive: -0.041
PUS1 (UniProt Q9Y606)	inactive: 0.04	active: -0.321	inactive: 0.041	inactive: -0.013	inactive: -0.022
PTCD2 (UniProt Q8WV60)	inactive: 0.055	inactive: -0.38	inactive: -0.037	inactive: 0.078	inactive: -0.052
PSMC2 (UniProt P35998)	inactive: 0.014	inactive: -0.007	inactive: 0.009	inactive: 0.016	inactive: 0.023
PTGES2 (UniProt Q9H7Z7)	inactive: -0.175	inactive: -0.197	inactive: 0.304	inactive: 0.12	inactive: 0.085
PWP1 (UniProt Q13610)	inactive: -0.082	inactive: 0.139	inactive: -0.033	inactive: 0.022	inactive: -0.003
PSMD9 (UniProt O00233)	inactive: 0.011	inactive: -0.019	inactive: -0.007	inactive: -0.012	inactive: 0.025
PSMC1 (UniProt P62191)	inactive: 0.025	inactive: 0.039	inactive: 0.009	inactive: 0.004	inactive: 0.022
PTDSS1 (UniProt P48651)	inactive: 0.022	inactive: 0.045	inactive: 0.029	inactive: -0.061	inactive: -0.042
PSEN1 (UniProt P49768)	inactive: -0.048	inactive: 0.004	inactive: -0.036	inactive: -0.064	inactive: -0.019

Not a retest: an excerpt of the list.
Target	log2 fold change [1]	log2 fold change (vorinostat)	log2 fold change (silmitasertib)	log2 fold change [2]	log2 fold change (entospletinib)
PTAR1 (UniProt Q7Z6K3)	inactive: 0.053	inactive: -0.029	inactive: 0.009	inactive: 0.033	inactive: 0.086
PUM2 (UniProt Q8TB72)	inactive: 0.292	inactive: -0.019	inactive: -0.131	inactive: 0.094	inactive: -0.01
